In the supplement of paper PMC8728848:
The other results are listed elsewhere or left out.

Columns and labels:
Assay in all cases: glycan array binding signal (z-score within array); higher = stronger binding
Settings in all cases: glycan notation: IUPAC condensed, linker removed
[1] = molecular target: Neu5Ac(a2-3)Gal(b1-4)GlcNAc(b1-3)[Neu5Ac(a2-3)Gal(b1-4)GlcNAc(b1-6)]GalNAc
Summary of the method: (§1)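 Glycan array data were curated from 3228 arrays in the Consortium for Functional Glycomics database and kept only where the protein sequence was available. Glycan names were converted to IUPAC-condensed notation, and columns mapping to the same glycan were averaged. The binding signal is a within-array Z-score, averaged across arrays of the same protein sequence at different concentrations or buffers and across linkers. Negative Z-scores can be read as non-binding.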

[2] = molecular target: Neu5Ac(a2-3)Gal(b1-4)GlcNAc(b1-6)GalNAc
Summary of the method: as §1

[3] = molecular target: Neu5Ac(a2-3)Gal(b1-4)GlcNAc(b1-6)[Gal(b1-3)]GalNAc
Summary of the method: as §1

[4] = molecular target: Neu5Ac(a2-3)Gal(b1-4)GlcNAc(b1-6)[Neu5Ac(a2-3)Gal(b1-3)]GalNAc
Summary of the method: as §1

[5] = molecular target: Neu5Ac(a2-3)Gal(b1-4)GlcNAc6S
Summary of the method: as §1

[6] = molecular target: Neu5Ac(a2-3)Gal(b1-4)[Fuc(a1-3)]GlcNAc
Summary of the method: as §1

[7] = molecular target: Neu5Ac(a2-3)Gal(b1-4)[Fuc(a1-3)]GlcNAc(b1-2)Man
Summary of the method: as §1

[8] = molecular target: Neu5Ac(a2-3)Gal(b1-4)[Fuc(a1-3)]GlcNAc(b1-3)Gal
Summary of the method: as §1

[9] = molecular target: Neu5Ac(a2-3)Gal(b1-4)[Fuc(a1-3)]GlcNAc(b1-3)Gal(b1-4)GlcNAc
Summary of the method: as §1

[10] = molecular target: Neu5Ac(a2-3)Gal(b1-4)[Fuc(a1-3)]GlcNAc(b1-3)Gal(b1-4)[Fuc(a1-3)]GlcNAc(b1-3)Gal(b1-4)[Fuc(a1-3)]GlcNAc
Summary of the method: as §1

[11] = molecular target: Neu5Ac(a2-3)Gal(b1-4)[Fuc(a1-3)]GlcNAc(b1-3)GalNAc
Summary of the method: as §1

[12] = molecular target: Neu5Ac(a2-3)Gal(b1-4)[Fuc(a1-3)]GlcNAc(b1-6)[Gal(b1-3)]GalNAc
Summary of the method: as §1

[13] = molecular target: Neu5Ac(a2-3)Gal(b1-4)[Fuc(a1-3)]GlcNAc(b1-6)[Neu5Ac(a2-3)Gal(b1-3)]GalNAc
Summary of the method: as §1

[14] = molecular target: Neu5Ac(a2-3)Gal(b1-4)[Fuc(a1-3)]GlcNAc6S
Summary of the method: as §1

[15] = molecular target: Neu5Ac(a2-3)Gal6S(b1-4)GlcNAc
Summary of the method: as §1

[16] = molecular target: Neu5Ac(a2-3)Gal6S(b1-4)[Fuc(a1-3)]GlcNAc
Summary of the method: as §1

[17] = molecular target: Neu5Ac(a2-3)GalNAc
Summary of the method: as §1

[18] = molecular target: Neu5Ac(a2-3)GalNAc(b1-4)GlcNAc
Summary of the method: as §1

[19] = molecular target: Neu5Ac(a2-3)[GalNAc(b1-4)]Gal(b1-4)Glc
Summary of the method: as §1

[20] = molecular target: Neu5Ac(a2-3)[GalNAc(b1-4)]Gal(b1-4)GlcNAc
Summary of the method: as §1

[21] = molecular target: Neu5Ac(a2-3)[GalNAc(b1-4)]Gal(b1-4)GlcNAc(b1-3)GalNAc
Summary of the method: as §1

[22] = molecular target: Neu5Ac(a2-3)[Neu5Ac(a2-6)]GalNAc
Summary of the method: as §1

[23] = molecular target: Neu5Ac(a2-6)Gal
Summary of the method: as §1

[24] = molecular target: Neu5Ac(a2-6)Gal(b1-3)GlcNAc(b1-3)[Gal(b1-4)GlcNAc(b1-6)]Gal(b1-4)Glc
Summary of the method: as §1

[25] = molecular target: Neu5Ac(a2-6)Gal(b1-4)Glc
Summary of the method: as §1

[26] = molecular target: Neu5Ac(a2-6)Gal(b1-4)GlcNAc
Summary of the method: as §1

[27] = molecular target: Neu5Ac(a2-6)Gal(b1-4)GlcNAc(b1-2)Man
Summary of the method: as §1

[28] = molecular target: Neu5Ac(a2-6)Gal(b1-4)GlcNAc(b1-2)Man(a1-3)Man(b1-4)GlcNAc(b1-4)GlcNAc
Summary of the method: as §1

[29] = molecular target: Neu5Ac(a2-6)Gal(b1-4)GlcNAc(b1-2)Man(a1-3)[Gal(b1-4)GlcNAc(b1-2)Man(a1-6)]Man(b1-4)GlcNAc(b1-4)GlcNAc
Summary of the method: as §1

[30] = molecular target: Neu5Ac(a2-6)Gal(b1-4)GlcNAc(b1-2)Man(a1-3)[GlcNAc(b1-2)Man(a1-6)]Man(b1-4)GlcNAc(b1-4)GlcNAc
Summary of the method: as §1

[31] = molecular target: Neu5Ac(a2-6)Gal(b1-4)GlcNAc(b1-2)Man(a1-3)[GlcNAc(b1-4)][Neu5Ac(a2-6)Gal(b1-4)GlcNAc(b1-2)Man(a1-6)]Man(b1-4)GlcNAc(b1-4)GlcNAc
Summary of the method: as §1

[32] = molecular target: Neu5Ac(a2-6)Gal(b1-4)GlcNAc(b1-2)Man(a1-3)[Man(a1-6)]Man(b1-4)GlcNAc(b1-4)GlcNAc
Summary of the method: as §1

[33] = molecular target: Neu5Ac(a2-6)Gal(b1-4)GlcNAc(b1-2)Man(a1-3)[Neu5Ac(a2-3)Gal(b1-4)GlcNAc(b1-2)Man(a1-6)]Man(b1-4)GlcNAc(b1-4)GlcNAc
Summary of the method: as §1

[34] = molecular target: Neu5Ac(a2-6)Gal(b1-4)GlcNAc(b1-2)Man(a1-3)[Neu5Ac(a2-6)Gal(b1-4)GlcNAc(b1-2)Man(a1-6)]Man(b1-4)GlcNAc(b1-4)GlcNAc
Summary of the method: as §1

[35] = molecular target: Neu5Ac(a2-6)Gal(b1-4)GlcNAc(b1-2)Man(a1-3)[Neu5Ac(a2-6)Gal(b1-4)GlcNAc(b1-2)Man(a1-6)]Man(b1-4)GlcNAc(b1-4)[Fuc(a1-6)]GlcNAc
Summary of the method: as §1

[36] = molecular target: Neu5Ac(a2-6)Gal(b1-4)GlcNAc(b1-2)Man(a1-6)Man(b1-4)GlcNAc(b1-4)GlcNAc
Summary of the method: as §1

[37] = molecular target: Neu5Ac(a2-6)Gal(b1-4)GlcNAc(b1-2)Man(a1-6)[Gal(b1-4)GlcNAc(b1-2)Man(a1-3)]Man(b1-4)GlcNAc(b1-4)GlcNAc
Summary of the method: as §1

[38] = molecular target: Neu5Ac(a2-6)Gal(b1-4)GlcNAc(b1-2)Man(a1-6)[GlcNAc(b1-2)Man(a1-3)]Man(b1-4)GlcNAc(b1-4)GlcNAc
Summary of the method: as §1

[39] = molecular target: Neu5Ac(a2-6)Gal(b1-4)GlcNAc(b1-2)Man(a1-6)[Man(a1-3)]Man(b1-4)GlcNAc(b1-4)GlcNAc
Summary of the method: as §1

[40] = molecular target: Neu5Ac(a2-6)Gal(b1-4)GlcNAc(b1-2)[Neu5Ac(a2-6)Gal(b1-4)GlcNAc(b1-4)]Man(a1-3)[GlcNAc(b1-4)][Neu5Ac(a2-6)Gal(b1-4)GlcNAc(b1-2)[Neu5Ac(a2-6)Gal(b1-4)GlcNAc(b1-6)]Man(a1-6)]Man(b1-4)GlcNAc(b1-4)GlcNAc
Summary of the method: as §1

[41] = molecular target: Neu5Ac(a2-6)Gal(b1-4)GlcNAc(b1-2)[Neu5Ac(a2-6)Gal(b1-4)GlcNAc(b1-4)]Man(a1-3)[GlcNAc(b1-4)][Neu5Ac(a2-6)Gal(b1-4)GlcNAc(b1-4)Man(a1-6)]Man(b1-4)GlcNAc(b1-4)GlcNAc
Summary of the method: as §1

[42] = molecular target: Neu5Ac(a2-6)Gal(b1-4)GlcNAc(b1-2)[Neu5Ac(a2-6)Gal(b1-4)GlcNAc(b1-6)]Man(a1-6)[Neu5Ac(a2-6)Gal(b1-4)GlcNAc(b1-2)Man(a1-3)][GlcNAc(b1-4)]Man(b1-4)GlcNAc(b1-4)GlcNAc
Summary of the method: as §1

[43] = molecular target: Neu5Ac(a2-6)Gal(b1-4)GlcNAc(b1-3)Gal(b1-3)GlcNAc
Summary of the method: as §1

[44] = molecular target: Neu5Ac(a2-6)Gal(b1-4)GlcNAc(b1-3)Gal(b1-4)GlcNAc
Summary of the method: as §1

[45] = molecular target: Neu5Ac(a2-6)Gal(b1-4)GlcNAc(b1-3)Gal(b1-4)GlcNAc(b1-2)Man(a1-3)[Neu5Ac(a2-6)Gal(b1-4)GlcNAc(b1-3)Gal(b1-4)GlcNAc(b1-2)Man(a1-6)]GalNAc
Summary of the method: as §1

B1: DCIR1 (Mus musculus), Q9QZ15 (protein)
chain: MASEITYAEVKFKNESNSLHTYSESPAAPREKPIRDLRKPGSPSLLLTSLMLLLLLLAITFLVAFIIYFQKYSQLLEEKKAAKNIMHNELNCTKSVSPMEDKVWSCCPKDWRLFGSHCYLVPTVSSSASWNKSEENCSRMGAHLVVIQSQEEQDFITGILDTHAAYFIGLWDTGHRQWQWVDQTPYEESITFWHNGEPSSGNEKCATIIYRWKTGWGWNDISCSLKQKSVCQMKKINL
Which “glycan array binding signal (z-score)” value [1] does the source give for B1 here?
The value was -0.075.

What about the “glycan array binding signal (z-score)” value [2] of the same binder?
The value was -0.193.

And the “glycan array binding signal (z-score)” value [3]?
The value was -0.308.

And the “glycan array binding signal (z-score)” value [4]?
Its value is -0.97.

And the “glycan array binding signal (z-score)” value [5]?
The value was 0.145.

What about the “glycan array binding signal (z-score)” value [6] of the same binder?
Its value is -0.67.

And the “glycan array binding signal (z-score)” value [7]?
Its value is -0.523.

What about the “glycan array binding signal (z-score)” value [8] of the same binder?
The value was -1.11.

What about the “glycan array binding signal (z-score)” value [9] of the same binder?
Its value is -0.732.

And the “glycan array binding signal (z-score)” value [10]?
The value was -0.703.

And the “glycan array binding signal (z-score)” value [11]?
Its value is 1.28.

And the “glycan array binding signal (z-score)” value [12]?
The value was 0.596.

And the “glycan array binding signal (z-score)” value [13]?
Its value is 0.06.

And the “glycan array binding signal (z-score)” value [14]?
Its value is -0.532.

What about the “glycan array binding signal (z-score)” value [15] of the same binder?
The value was -0.885.

And the “glycan array binding signal (z-score)” value [16]?
The value was -1.

What about the “glycan array binding signal (z-score)” value [17] of the same binder?
Its value is -0.723.

What about the “glycan array binding signal (z-score)” value [18] of the same binder?
Its value is 0.325.

What about the “glycan array binding signal (z-score)” value [19] of the same binder?
Its value is -0.774.

And the “glycan array binding signal (z-score)” value [20]?
The value was -0.784.

What about the “glycan array binding signal (z-score)” value [21] of the same binder?
The value was -0.678.

What about the “glycan array binding signal (z-score)” value [22] of the same binder?
Its value is -0.067.

What about the “glycan array binding signal (z-score)” value [23] of the same binder?
Its value is 0.531.

And the “glycan array binding signal (z-score)” value [24]?
Its value is 0.196.

What about the “glycan array binding signal (z-score)” value [25] of the same binder?
The value was -0.693.

What about the “glycan array binding signal (z-score)” value [26] of the same binder?
Its value is -0.229.

What about the “glycan array binding signal (z-score)” value [27] of the same binder?
The value was 0.311.

And the “glycan array binding signal (z-score)” value [28]?
Its value is 0.019.

What about the “glycan array binding signal (z-score)” value [29] of the same binder?
The value was 0.394.

What about the “glycan array binding signal (z-score)” value [30] of the same binder?
The value was -0.842.

And the “glycan array binding signal (z-score)” value [31]?
The value was -0.941.

What about the “glycan array binding signal (z-score)” value [32] of the same binder?
Its value is 0.041.

What about the “glycan array binding signal (z-score)” value [33] of the same binder?
The value was -0.847.

And the “glycan array binding signal (z-score)” value [34]?
The value was -0.079.

And the “glycan array binding signal (z-score)” value [35]?
Its value is 0.371.

And the “glycan array binding signal (z-score)” value [36]?
Its value is 1.82.

What about the “glycan array binding signal (z-score)” value [37] of the same binder?
Its value is -0.16.

What about the “glycan array binding signal (z-score)” value [38] of the same binder?
The value was 2.04.

And the “glycan array binding signal (z-score)” value [39]?
The value was -1.19.

What about the “glycan array binding signal (z-score)” value [40] of the same binder?
Its value is -0.823.

What about the “glycan array binding signal (z-score)” value [41] of the same binder?
The value was -1.19.

What about the “glycan array binding signal (z-score)” value [42] of the same binder?
Its value is -1.08.

What about the “glycan array binding signal (z-score)” value [43] of the same binder?
The value was -1.01.

And the “glycan array binding signal (z-score)” value [44]?
The value was -0.209.

And the “glycan array binding signal (z-score)” value [45]?
Its value is -0.099.
